According to publication PMC7716890 (Clinical Pharmacokinetics, 2020):
Entries after “also recorded” stand apart in the source; their conditions may differ. Where two headings read alike, the source gives them in different places.

Columns and labels:
[1] = cocktail with cimetidine vs cocktail alone
[2] = not given; remark: listed apart in the source
[3] = cocktail (furosemide 1 mg) with probenecid vs cocktail alone
[4] = furosemide 40 mg with probenecid vs alone

effect of cimetidine on systemic exposure [1]: no effect; also recorded: no inhibition
increase of AUC0–tz [3]: 172%
increase of Cmax [3]: 23%
increase of AUC0–tz [4]: 203%
increase of Cmax [4]: 47%
increase of Cmax ([2]; cocktail with single-dose rifampin vs cocktail alone): 35%
effect of verapamil on systemic exposure ([2]; cocktail with single-dose verapamil vs cocktail alone): no effect
Compound: NS(=O)(=O)c1cc(C(=O)O)c(NCc2ccco2)cc1Cl [Furosemide, furosemide]
